Results taken from the supplement of paper PMC9233669.
Variants at the background level are over-represented here.

Key:
[1] = system: biotinyl-Trp-oxazolone; assay: self-aminoacylation, catalytic enhancement (BWO) (fold over background); higher = more active; k-Seq, kA / k0A0; sequences stand for … in GGGAAUGGAUCCACAUCUACGAAUUC…UUCACUGCAGACUUGACGAAGCUG
Outline: (§1)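 Catalytic enhancement equals the median kA over the uncatalyzed rate, the latter read from the low-activity peak of a bimodal Gaussian fit. Values of kA came from fitting each sequence's fraction reacted to a pseudo-first-order model, with 1000 bootstraps. Reacted RNA was captured with streptavidin and quantified by triplicate qPCR and Illumina sequencing after 90 minutes at room temperature with 2–1250 μM biotinyl-aminoacyl-oxazolone and 0.43 μM mutagenized RNA pools bearing a 21-nt variable region.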

[2] = system: biotinyl-Leu-oxazolone; assay: self-aminoacylation, catalytic enhancement (BLO) (fold over background); higher = more active; k-Seq, kA / k0A0; sequences stand for … in GGGAAUGGAUCCACAUCUACGAAUUC…UUCACUGCAGACUUGACGAAGCUG
Outline: as §1

[3] = system: biotinyl-Val-oxazolone; assay: self-aminoacylation, catalytic enhancement (BVO) (fold over background); higher = more active; k-Seq, kA / k0A0; sequences stand for … in GGGAAUGGAUCCACAUCUACGAAUUC…UUCACUGCAGACUUGACGAAGCUG
Outline: as §1

[4] = system: biotinyl-Ile-oxazolone; assay: self-aminoacylation, catalytic enhancement (BIO) (fold over background); higher = more active; k-Seq, kA / k0A0; sequences stand for … in GGGAAUGGAUCCACAUCUACGAAUUC…UUCACUGCAGACUUGACGAAGCUG
Outline: as §1

[5] = system: biotinyl-Met-oxazolone; assay: self-aminoacylation, catalytic enhancement (BMO) (fold over background); higher = more active; k-Seq, kA / k0A0; sequences stand for … in GGGAAUGGAUCCACAUCUACGAAUUC…UUCACUGCAGACUUGACGAAGCUG
Outline: as §1

[6] = system: biotinyl-Phe-oxazolone; assay: self-aminoacylation, catalytic enhancement (BFO) (fold over background); higher = more active; k-Seq, kA / k0A0; sequences stand for … in GGGAAUGGAUCCACAUCUACGAAUUC…UUCACUGCAGACUUGACGAAGCUG
Outline: as §1

| Sequence | self-aminoacylation [1] | self-aminoacylation [2] | self-aminoacylation [3] | self-aminoacylation [4] | self-aminoacylation [5] | self-aminoacylation [6] |
| --- | --- | --- | --- | --- | --- | --- |
| AUUACCGUGGUCAUAGAGUGA [Fam2.1 aminoacylation ribozyme variant] | 7.99 | 6.95 | 3.97 | 3.67 | 7.8 | 35.7 |
| AUUACCGUGGUCAUCGAAUGA [Fam2.1 aminoacylation ribozyme variant] | 0.841 | 1.11 | 1.05 | 1.06 | 0.94 | 0.501 |
| AUUACCUUGGUCAUCGAGUGG [Fam2.1 aminoacylation ribozyme variant] | 0.873 | 2.13 | 1.45 | 1.67 | 2.08 | 1.64 |
| AUUACGCUUGUCAUCGAGUGA [Fam2.1 aminoacylation ribozyme variant] | 4.03 | 3.93 | 2.36 | 2.6 | 3.16 | 4.09 |
| AUUAGCCUGGUCAUCAAGUGA [Fam2.1 aminoacylation ribozyme variant] | 4.94 | 4.41 | 2.45 | 2.74 | 4.31 | 17.9 |
| AUUAGGCUGGUCAUCGAGUGA [Fam2.1 aminoacylation ribozyme variant] | 4.23 | 2.85 | 2.48 | 2.53 | 3.01 | 8.97 |
| AUUCACCAAGGUCAGCGGGUG [Fam2.2 aminoacylation ribozyme variant] | 4.65 | 5.4 | 3.95 | 4.01 | 4.83 | 29.3 |
| AUUCACCUAAGUCAUCGUGUG [Fam2.2 aminoacylation ribozyme variant] | 0.751 | 1.19 | 1.09 | 0.828 | 0.927 | 0.491 |
| AUUCACCUACGUCAUCGGAUG [Fam2.2 aminoacylation ribozyme variant] | 0.335 | 0.648 | 0.783 | 0.643 | 0.627 | 0.403 |
| AUUCACCUAGAUCAUCAGGUG [Fam2.2 aminoacylation ribozyme variant] | 0.71 | 1.14 | 1.05 | 0.933 | 1.06 | 0.666 |
| AUUCACCUAGAUCAUUGGGUG [Fam2.2 aminoacylation ribozyme variant] | 3.54 | 3.94 | 1.91 | 2.15 | 3.71 | 18 |
| AUUCACCUAGCUCAUCAGGUG [Fam2.2 aminoacylation ribozyme variant] | 0.459 | 0.703 | 0.868 | 0.771 | 0.828 | 0.307 |
| AUUCACCUAGCUCAUCGGGAG [Fam2.2 aminoacylation ribozyme variant] | 0.858 | 1.32 | 1.08 | 1.16 | 0.989 | 0.656 |
| AUUCACCUAGCUCAUCGGGUC [Fam2.2 aminoacylation ribozyme variant] | 0.718 | 0.882 | 1.12 | 1.01 | 0.947 | 0.876 |
| AUUCACCUAGGUCAGCGGAUG [Fam2.2 aminoacylation ribozyme variant] | 1.75 | 1.59 | 1.41 | 1.45 | 1.08 | 0.997 |
| AUUCACCUAGGUCAUCAGAUG [Fam2.2 aminoacylation ribozyme variant] | 0.522 | 0.928 | 0.872 | 0.857 | 0.656 | 0.715 |
| AUUCACCUAGGUCAUCCGGUU [Fam2.2 aminoacylation ribozyme variant] | 1.39 | 1.97 | 1.88 | 1.63 | 1.82 | 9.74 |
| AUUCACCUAGGUCAUGGGGUG [Fam2.2 aminoacylation ribozyme variant] | 5.27 | 7.33 | 3.56 | 3.7 | 5.76 | 39.9 |
| AUUCACCUAGGUCAUUGGGUA [Fam2.2 aminoacylation ribozyme variant] | 1.38 | 1.83 | 1.47 | 1.56 | 1.72 | 1.45 |
| AUUCACCUAGGUCCUCAGGUG [Fam2.2 aminoacylation ribozyme variant] | 1.43 | 1.79 | 1.23 | 1.07 | 1.65 | 1.51 |
| AUUCACCUAGGUCGUAGGGUG [Fam2.2 aminoacylation ribozyme variant] | 0.737 | 1.74 | 1.17 | 1.04 | 1.46 | 1.02 |
